# About 17,000 (5.5%) of roughly 310,000 compounds were called active. The inconclusive results got no clear call from the source; some entries with a clear call stand among them for comparison. The call rests on the fitted dose curve; in most records, active means well fitted inhibition curve with a large enough effect; inconclusive means small, poorly fitted or top-dose-only effect, or effect the other way; inactive means no such curve, though single readings can be large or run the other way. A potency beside an inconclusive call is a rough fit, not a confirmed value.
# The chains behind the UniProt entries cited, without tags or fusion partners. Where a name states a change or a piece, a line headed by the entry shows the natural chain unless it says otherwise.
# UniProt P51450: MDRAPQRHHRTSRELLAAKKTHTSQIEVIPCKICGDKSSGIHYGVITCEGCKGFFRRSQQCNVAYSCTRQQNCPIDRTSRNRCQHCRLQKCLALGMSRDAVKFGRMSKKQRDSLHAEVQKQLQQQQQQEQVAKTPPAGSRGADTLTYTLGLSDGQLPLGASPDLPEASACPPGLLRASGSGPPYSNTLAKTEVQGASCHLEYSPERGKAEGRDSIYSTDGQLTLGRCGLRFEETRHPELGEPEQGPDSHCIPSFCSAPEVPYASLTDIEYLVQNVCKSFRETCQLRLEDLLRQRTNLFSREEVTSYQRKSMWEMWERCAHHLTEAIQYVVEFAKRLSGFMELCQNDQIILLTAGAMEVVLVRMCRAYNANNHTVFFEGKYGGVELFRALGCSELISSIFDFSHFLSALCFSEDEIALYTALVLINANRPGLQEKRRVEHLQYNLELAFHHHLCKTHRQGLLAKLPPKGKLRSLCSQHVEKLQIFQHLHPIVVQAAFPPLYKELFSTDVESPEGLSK
# Target: Nuclear receptor ROR-gamma (Mus musculus) (UniProt P51450)
# Test: qHTS for inhibitors of ROR gamma transcriptional activity; further: nearly all actives have a fitted effect of over 60% in size
# Details: Drosophila S2 Gal4-RORgamma UAS-luciferase reporter, 20 h; activity change, negative = inhibition: at 53.6 µM (top of the series)
# In short: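 Luciferase reporter read in Schneider cells carrying Gal4-RORγ (mouse) and UAS-Photinus luciferase; cells given compound 1 h before 700 uM copper sulfate induction, then incubated 20 h at ambient temperature.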
# On the % scale 0 is the no-effect control and ±100 the full control effect; potency means the concentration at half of the fitted maximal effect.
SMILES,Potency,"activity change, negative = inhibition"
CCc1sc(C(=O)NCCc2ccc(S(N)(=O)=O)cc2)cc1C,"inconclusive: 35.5 µM [activator, single point]",–
FC(F)(F)c1ccc(Cl)c(-n2c(-c3cc(-c4ccco4)[nH]n3)n[nH]c2=S)c1,"inconclusive: 8.91 µM [inhibitor, partial curve, poor fit]",–
CCOc1ccccc1Nc1nc(-c2sc(NC(=O)c3ccco3)nc2C)cs1,inactive,–
CCOC(=O)c1cc(-c2ccccc2)n(CC(=O)O)c1C,"inconclusive: 6.31 µM [inhibitor, single point]",–
CC(C)c1ccc2c(c1)[C@H]1OCC[C@H]1[C@@H](c1cccs1)N2,"inconclusive: 12.6 µM [activator, partial curve]",–
O=C(NC1CCCCC1)C(c1cccnc1)N(C(=O)CCl)c1ccc(F)cc1 (configuration not stated),active: 11.2 µM,–
CCOC(=O)N/N=C/c1ccc(Oc2ccccc2)cc1,"inconclusive: 12.6 µM [activator, partial curve]",–
Cc1ccc(C(C)C)c(OCc2ccc(C(=O)N/N=C/c3ccc(O)c(O)c3)cc2)c1,"inconclusive: 35.5 µM [inhibitor, single point]",–
O=C(NCCCc1ccccc1)Nc1ccccc1,inactive,–
Fc1ccc(CNC(=S)Nc2ccc(OC(F)F)cc2)cc1,active: 11.2 µM,–
Cc1sc(NC(=O)c2ccco2)c(CN2CCCCC2)c1C,"inconclusive: 35.5 µM [inhibitor, single point]",–
COc1ccc(Oc2c(Cl)cnn(-c3ccc(C)cc3)c2=O)cc1,"inconclusive: 22.4 µM [activator, single point]",–
COc1cccc(-c2nn(C)c3sc(C(=O)NCc4ccc(C)o4)cc23)c1,inactive,–
CC(=O)Oc1ccc(C(=O)Nc2ccc3c(c2)OCCO3)cc1,"inconclusive: 12.6 µM [inhibitor, partial curve]",–
O=C(O)CCC(=O)c1ccc2c(c1)OCCCO2,"inconclusive: 0.891 µM [activator, full curve]",–
CSc1cccc(NC(=O)CN(c2cc(C)ccc2C)S(C)(=O)=O)c1,"inconclusive: 31.6 µM [activator, single point]",–
CC1=NN(c2nc(-c3ccc(F)cc3)cs2)C(=O)C1,active: 12.6 µM,–
COc1cc(C2CC(=O)N(CC(=O)NCc3ccco3)c3ccccc3S2)cc(OC)c1OC (configuration not stated),inactive,–
O=C(CCC1CCCCC1)NNC(=O)NC12CC3CC(CC(C3)C1)C2,"inconclusive: 17.8 µM [inhibitor, single point]",–
CCCSc1nc(-n2ncc(C#N)c2N)c2c3c(sc2n1)CCC(C)C3 (configuration not stated),inactive,–
CC(C)(C)NC(=O)NC(=O)CSc1ncc(C(F)(F)F)cc1Cl,"inconclusive: 15.8 µM [activator, single point]",–
Cn1c(SCC(=O)c2ccccc2)nnc1C1COc2ccccc2O1 (configuration not stated),inactive,–
O=C1c2ccccc2C(=O)c2cc(S(=O)(=O)Nc3cccc4cccnc34)ccc21,active: 0.891 µM,–
COc1ccc2c(c1)CCN=C2Cc1ccc(OC)c(OC)c1,"inconclusive: 35.5 µM [activator, single point]",–

# Entries of single compounds as entered above:
# O=C(CCC1CCCCC1)NNC(=O)NC12CC3CC(CC(C3)C1)C2 reads Potency: inconclusive: 17.8 µM [inhibitor, single point]
# CCc1sc(C(=O)NCCc2ccc(S(N)(=O)=O)cc2)cc1C reads Potency: inconclusive: 35.5 µM [activator, single point]

# Further records

SMILES,Potency,"activity change, negative = inhibition"
O=C(O)c1cc(N/N=C/c2ccc3c(c2)OCCO3)ccc1Cl,"inconclusive: 8.91 µM [inhibitor, partial curve, poor fit]",–
O=C1CN(C(=O)c2cc([N+](=O)[O-])ccc2Cl)C(c2ccccc2)c2cc(F)ccc2N1 (configuration not stated),"inconclusive: 12.6 µM [activator, single point]",–
O=C(Oc1ccc(N(Cc2cccs2)C2=NS(=O)(=O)c3ccccc32)cc1)c1ccc(Cl)cc1,"inconclusive: 2.24 µM [activator, partial curve, poor fit]",–
O=C(/C=C/c1cccc([N+](=O)[O-])c1)NCCN1C(=O)S/C(=C\c2cccnc2)C1=O,"inconclusive: 17.8 µM [inhibitor, single point]",–
COc1ccc2nc(SCC(=O)NCC3CCCO3)c(C#N)cc2c1 (configuration not stated),inactive,–
COc1cc(C2Nc3cccc4cccc(c34)N2)ccc1O,–,inconclusive: -45.2% [inhibitor]
Cc1ccc(NCC(=O)N/N=C\c2ccc[nH]2)cc1,active: 6.31 µM,–
Cc1ccccc1NS(=O)(=O)c1ccc(OCC(=O)NCc2cccnc2)cc1,inactive,–
CC(C)C(=O)Nc1cccc(-c2cn3ccccc3n2)c1,inactive,–
CC1CCN(Cc2nnnn2-c2cccc([N+](=O)[O-])c2)CC1,"inconclusive: 20 µM [activator, partial curve]",–
CC(=O)N1CCSc2ccc(S(=O)(=O)NCCc3cccc(C)c3)cc21,"inconclusive: 20 µM [activator, single point]",–
CCN(Cc1ccccc1)C(=O)CN1C(=S)NC(C)(C)CC1C (configuration not stated),active: 11.2 µM,–
O=[N+]([O-])c1cccc(-c2nnc(CNC3CC3)o2)c1,inactive,–
COc1cc2nc(N3CCN(c4cc(C)ccc4C)CC3)nc(N)c2cc1OC,active: 15.8 µM,–
CCOc1ccc(CC2CCC(=O)NC2=O)cc1 (configuration not stated),inactive,–
O=C(N/N=C/c1cccc2ccccc12)c1cccc(F)c1,"inconclusive: 4.47 µM [inhibitor, partial curve, poor fit]",–
CNC(=S)NNC(=O)c1ccccc1Br,active: 12.6 µM,–
CC(C)n1c(CN2CCN(Cc3ccccc3)CC2)nc2ccccc21,"inconclusive: 14.1 µM [inhibitor, partial curve]",–
O=C(/C=C/c1ccccc1Cl)Nc1ccc(-c2nnc3n2CCCCC3)cc1,"inconclusive: 10 µM [activator, partial curve]",–
CCOCCc1nnc(NC(=O)CCc2ccccc2)s1,inactive,–
Cc1cccc(C)c1NC(=O)CCCSc1nnc(-c2ccc(F)cc2)n1-c1ccccc1,"inconclusive: 12.6 µM [activator, single point]",–
O=C(c1ccc2c3c(cccc13)C(=O)N(O)C2=O)N1CCCCC1,"inconclusive: 12.6 µM [activator, single point]",–
CCCCCC1CCC(c2n[nH]c(=S)n2C)CC1 (configuration not stated),"inconclusive: 5.62 µM [inhibitor, full curve, poor fit]",–

# — PubChem BioAssay AID2551 (National Center for Advancing Translational Sciences (NCATS), 2010)
